# Results from PMC8042982.
# No constants are given. Whether binding was seen depends on the method and setting. In cells and extracts the contact can be indirect. Some binding calls cover weakened binding; strength is not graded here.
# Assays:
# p53-EGFP = p53-EGFP (UniProt P04637); assay: co-IP; HEK293T cells co-transfected, whole cell extracts 24 h after transfection (50 mM Tris pH 8, 150 mM NaCl, 5 mM EDTA, 0.5% NP40, 1 mM DTT), sonicated; IP with anti-GFP antibody (µMACS isolation kit for tagged proteins), eluates immunoblotted
# TIP60-HA = TIP60-HA (UniProt Q92993); assay: co-IP; HEK293T cells co-transfected, whole cell extracts 24 h after transfection (50 mM Tris pH 8, 150 mM NaCl, 5 mM EDTA, 0.5% NP40, 1 mM DTT), sonicated; IP with anti-HA tag antibody (µMACS isolation kit for tagged proteins), eluates immunoblotted
binding (p53-EGFP),binding (TIP60-HA),Substance
binds,–,TIP60-HA (from UniProt Q92993 1-513)
–,binds,p53-EGFP (from UniProt P04637 1-393)
